Assay results reported in patent US20110244569A1, “METHOD OF INDUCING PROLIFERATION AND/OR DIFFERENTIATION OF NEURAL PRECURSOR CELLS BY INTRODUCING PROLACTIN OR WNT3A TO ACTIVATE LATENT NEURAL PRECURSOR CELLS” (priority 2008, published 2011).
At least one structure is not confirmed: it was looked up by name or label, or the drawing left a doubt.

Legend:
[1] = tested on: SVZ cells; test: Primary neurosphere culture, SVZ; type: cell-based, mouse; conditions: presence or absence of depolarizing levels of potassium
Experimental: (§1) Adult (6-8 week old) male C57/B16 mice were killed by cervical dislocation, their brains immediately removed and the hippocampus, SVZ, olfactory bulb or cortex dissected. The tissue was enzymatically digested with 0.1% trypsin-EDTA (Gibco/Invitrogen, Eugene, Oreg.) for 7 minutes at 37° C., followed by a wash with 0.014% w/v trypsin inhibitor (type I-S from soybean; Sigma-Aldrich Australia, Sydney, Australia) dissolved in Hepes-buffered minimum essential medium (HEM), which consisted of minimum essential medium (Gibco/Invitrogen) supplemented with 16 mM HEPES (Sigma-Aldrich Australia) and 100 units/ml penicillin/streptomycin (Gibco/Invitrogene). The tissue was centrifuged at 100 rcf for 7 minutes, following which the pellet was resuspended in 1 ml neurosphere growth medium, mechanically triturated until smooth, then filtered through a 40 μm cell sieve (Falcon/BD Biosciences Australia, North Ryde, Australia). […]
(§2) Primary hippocampal cells were incubated for 10 days, and SVZ, olfactory bulb or cortical cells for 7 days, in humidified 5% CO2 to permit neurosphere formation. The primary neurospheres were then counted and collected for passaging or differentiation. Results of the neurosphere counts were expressed as mean±standard error and statistical analysis was performed using a standard t-Test (two sample assuming equal variance).

[2] = tested on: primary hippocampal cells; test: Primary neurosphere culture, hippocampus; type: cell-based, mouse; conditions: nicardipine 10 μM with depolarizing KCl
Experimental: as §1, with “The” for “Adult (6-8 week old) male C57/B16 mice were killed by cervical dislocation, their brains immediately removed and the hippocampus, SVZ, olfactory bulb or cortex dissected. The”
as §2

COC(=O)C1=C(C)NC(C)=C(C(=O)OCCN(C)Cc2ccccc2)C1c1cccc([N+](=O)[O-])c1 (centres unmarked) [nicardipine]
effect on neurosphere formation in SVZ [1]: does not inhibit neurosphere formation | effect on excitation-induced activation of neurosphere forming cells [2]: almost completely blocked
